No constants are given. Whether binding was seen depends on the method and setting. In cells and extracts the contact can be indirect. Some results given as binding are weak or reduced against the parent protein; the word gives no strength. For part of these data: Sequences can lack the tags named with a protein.
Assays:
[1] = molecular target: LgBiT/FLAG-tagged MX2(51-715) (human) (UniProt P20592); assay: split reporter
[2] = molecular target: LgBiT/FLAG-tagged MX2(Δ26-90) (human) (UniProt P20592); assay: split reporter
[3] = molecular target: LgBiT/FLAG-tagged MX2(26-715) (human) (UniProt P20592); assay: split reporter
[4] = molecular target: T1, LgBiT/FLAG-tagged MX2 (human) (UniProt P20592); assay: split reporter
T1 sequence: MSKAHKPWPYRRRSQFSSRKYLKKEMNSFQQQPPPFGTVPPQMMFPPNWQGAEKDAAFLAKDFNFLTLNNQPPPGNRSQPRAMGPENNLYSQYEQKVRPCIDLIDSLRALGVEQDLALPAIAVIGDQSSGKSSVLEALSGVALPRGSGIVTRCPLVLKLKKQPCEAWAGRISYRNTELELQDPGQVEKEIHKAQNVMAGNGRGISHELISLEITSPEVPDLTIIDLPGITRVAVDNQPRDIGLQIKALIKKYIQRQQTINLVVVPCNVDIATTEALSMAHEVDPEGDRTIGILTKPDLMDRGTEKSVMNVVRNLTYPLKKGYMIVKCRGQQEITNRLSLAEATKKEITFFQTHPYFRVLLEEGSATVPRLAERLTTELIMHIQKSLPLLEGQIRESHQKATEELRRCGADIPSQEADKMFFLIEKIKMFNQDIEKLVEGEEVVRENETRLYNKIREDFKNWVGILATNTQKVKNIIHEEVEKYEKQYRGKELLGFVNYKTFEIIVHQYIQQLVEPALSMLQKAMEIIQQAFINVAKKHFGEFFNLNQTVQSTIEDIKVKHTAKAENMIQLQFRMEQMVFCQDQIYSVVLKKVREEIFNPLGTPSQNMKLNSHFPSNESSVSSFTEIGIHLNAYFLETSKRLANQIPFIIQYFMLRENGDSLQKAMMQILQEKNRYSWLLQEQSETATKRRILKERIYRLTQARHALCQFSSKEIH

Protein sequences, listed by entry. Tags and fused reporters are not part of them.
UniProt Q92973: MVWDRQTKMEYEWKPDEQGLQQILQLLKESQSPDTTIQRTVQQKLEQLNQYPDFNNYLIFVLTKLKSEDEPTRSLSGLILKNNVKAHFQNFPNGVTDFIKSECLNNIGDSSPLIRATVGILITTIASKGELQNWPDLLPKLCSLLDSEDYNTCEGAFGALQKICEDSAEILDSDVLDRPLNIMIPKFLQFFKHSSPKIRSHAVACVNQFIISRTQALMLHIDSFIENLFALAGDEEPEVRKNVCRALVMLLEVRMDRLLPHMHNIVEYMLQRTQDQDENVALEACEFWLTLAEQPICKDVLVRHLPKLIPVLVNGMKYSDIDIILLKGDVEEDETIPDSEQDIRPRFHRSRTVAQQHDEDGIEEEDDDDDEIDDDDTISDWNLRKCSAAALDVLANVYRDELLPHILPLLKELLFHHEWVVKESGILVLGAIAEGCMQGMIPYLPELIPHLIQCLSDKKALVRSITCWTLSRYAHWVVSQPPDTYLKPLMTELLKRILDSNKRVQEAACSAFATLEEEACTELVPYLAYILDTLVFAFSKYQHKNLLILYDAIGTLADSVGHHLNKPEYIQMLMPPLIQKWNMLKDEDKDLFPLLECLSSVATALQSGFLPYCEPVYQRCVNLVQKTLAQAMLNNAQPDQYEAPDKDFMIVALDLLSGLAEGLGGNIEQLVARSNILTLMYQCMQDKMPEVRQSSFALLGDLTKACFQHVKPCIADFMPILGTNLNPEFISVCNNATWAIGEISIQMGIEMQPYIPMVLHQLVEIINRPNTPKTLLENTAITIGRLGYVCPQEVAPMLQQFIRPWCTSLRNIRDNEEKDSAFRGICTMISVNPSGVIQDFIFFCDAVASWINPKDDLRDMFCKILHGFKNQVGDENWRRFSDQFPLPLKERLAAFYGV

FLAG-tagged MX2 (human) = molecular target: T2, FLAG-tagged MX2 (human) (UniProt P20592); assay: co-IP
T2 sequence: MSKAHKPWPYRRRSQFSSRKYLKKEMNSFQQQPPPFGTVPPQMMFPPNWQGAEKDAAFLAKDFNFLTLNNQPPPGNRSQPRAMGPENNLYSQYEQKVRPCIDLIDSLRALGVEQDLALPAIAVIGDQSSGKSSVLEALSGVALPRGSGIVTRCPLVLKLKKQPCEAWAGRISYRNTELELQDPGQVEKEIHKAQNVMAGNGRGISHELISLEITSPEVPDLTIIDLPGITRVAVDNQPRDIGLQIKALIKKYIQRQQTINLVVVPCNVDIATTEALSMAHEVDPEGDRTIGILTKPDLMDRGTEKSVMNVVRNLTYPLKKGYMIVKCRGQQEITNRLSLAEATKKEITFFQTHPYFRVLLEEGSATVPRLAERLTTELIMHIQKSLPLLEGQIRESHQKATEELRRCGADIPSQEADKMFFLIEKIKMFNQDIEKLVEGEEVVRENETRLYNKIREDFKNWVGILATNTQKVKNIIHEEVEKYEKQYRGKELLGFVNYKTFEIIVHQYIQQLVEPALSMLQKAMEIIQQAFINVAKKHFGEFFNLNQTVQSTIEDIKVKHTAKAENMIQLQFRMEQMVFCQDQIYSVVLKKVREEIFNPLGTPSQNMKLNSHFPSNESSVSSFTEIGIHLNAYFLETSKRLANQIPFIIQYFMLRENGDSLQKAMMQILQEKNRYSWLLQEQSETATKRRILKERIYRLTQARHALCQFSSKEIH

[5] = molecular target: LgBiT/FLAG-tagged MX2(K131A) (human) (UniProt P20592); assay: split reporter
[6] = molecular target: LgBiT/FLAG-tagged MX2(M574D) (human) (UniProt P20592); assay: split reporter

Molecule: SmBiT/V5-tagged TNPO1 (from UniProt Q92973 1-898)
- binding [1]: no binding
- binding [2]: no binding
- binding [3]: no binding
- binding [4]: binds

B1: MX2-MUTT2A-TurboID (protein, UniProt P20592 1-715)
chain: MSKAHKPWPYRRRSQFSSRKYLKKEMNSFQQQPPPFGTVPPQMMFPPNWQGAEKDAAFLAKDFNFLTLNNQPPPGNRSQPRAMGPENNLYSQYEQKVRPCIDLIDSLRALGVEQDLALPAIAVIGDQSSGKSSVLEALSGVALPRGSGIVTRCPLVLKLKKQPCEAWAGRISYRNTELELQDPGQVEKEIHKAQNVMAGNGRGISHELISLEITSPEVPDLTIIDLPGITRVAVDNQPRDIGLQIKALIKKYIQRQQTINLVVVPCNVDIATTEALSMAHEVDPEGDRTIGILTKPDLMDRGTEKSVMNVVRNLTYPLKKGYMIVKCRGQQEITNRLSLAEATKKEITFFQTHPYFRVLLEEGSATVPRLAERLTTELIMHIQKSLPLLEGQIRESHQKATEELRRCGADIPSQEADKMFFLIEKIKMFNQDIEKLVEGEEVVRENETRLYNKIREDFKNWVGILATNTQKVKNIIHEEVEKYEKQYRGKELLGFVNYKTFEIIVHQYIQQLVEPALSMLQKAMEIIQQAFINVAKKHFGEFFNLNQTVQSTIEDIKVKHTAKAENMIQLQFRMEQMVFCQDQIYSVVLKKVREEIFNPLGTPSQNMKLNSHFPSNESSVSSFTEIGIHLNAYFLETSKRLANQIPFIIQYFMLRENGDSLQKAMMQILQEKNRYSWLLQEQSETATKRRILKERIYRLTQARHALCQFSSKEIH
- binding (FLAG-tagged MX2 (human)): binds

B2: SmBiT/V5-tagged SAMD4A (protein, UniProt Q9UPU9 1-718)
chain: MMFRDQVGVLAGWFKGWNECEQTVALLSLLKRVSQTQARFLQLCLEHSLADCAELHVLEREANSPGIINQWQQESKDKVISLLLTHLPLLKPGNLDAKVEYMKLLPKILAHSIEHNQHIEESRQLLSYALIHPATSLEDRSALAMWLNHLEDRTSTSFGGQNRGRSDSVDYGQTHYYHQRQNSDDKLNGWQNSRDSGICINASNWQDKSMGCENGHVPLYSSSSVPTTINTIGTSTSTILSGQAHHSPLKRSVSLTPPMNVPNQPLGHGWMSHEDLRARGPQCLPSDHAPLSPQSSVASSGSGGSEHLEDQTTARNTFQEEGSGMKDVPAWLKSLRLHKYAALFSQMTYEEMMALTECQLEAQNVTKGARHKIVISIQKLKERQNLLKSLERDIIEGGSLRIPLQELHQMILTPIKAYSSPSTTPEARRREPQAPRQPSLMGPESQSPDCKDGAAATGATATPSAGASGGLQPHQLSSCDGELAVAPLPEGDLPGQFTRVMGKVCTQLLVSRPDEENISSYLQLIDKCLIHEAFTETQKKRLLSWKQQVQKLFRSFPRKTLLDISGYRQQRNRGFGQSNSLPTAGSVGGGMGRRNPRQYQIPSRNVPSARLGLLGTSGFVSSNQRNTTATPTIMKQGRQNLWFANPGGSNSMPSRTHSSVQRTRSLPVHTSPQNMLMFQQPEFQLPVTEPDINNRLESLCLSMTEHALGDGVDRTSTI
- binding [4]: binds
- binding [5]: binds
- binding [6]: binds

B3: SmBiT/V5-tagged NUP35 (protein, UniProt Q8NFH5 1-326)
chain: MAAFAVEPQGPALGSEPMMLGSPTSPKPGVNAQFLPGFLMGDLPAPVTPQPRSISGPSVGVMEMRSPLLAGGSPPQPVVPAHKDKSGAPPVRSIYDDISSPGLGSTPLTSRRQPNISVMQSPLVGVTSTPGTGQSMFSPASIGQPRKTTLSPAQLDPFYTQGDSLTSEDHLDDSWVTVFGFPQASASYILLQFAQYGNILKHVMSNTGNWMHIRYQSKLQARKALSKDGRIFGESIMIGVKPCIDKSVMESSDRCALSSPSLAFTPPIKTLGTPTQPGSTPRISTMRPLATAYKASTSDYQVISDRQTPKKDESLVSKAMEYMFGW
- binding [4]: binds

From paper doi:10.1101/2023.06.22.545931
